Source: US20030170326A1, “Bioavailability enchancing activity of Zingiber officinale Linn and its extracts/fractions thereof” (COUNCIL OF SCIENTIFIC AND INDUSTRIAL RESEARCH, priority 2001, published 2003)

Test: Bioavailability enhancement of a drug/nutraceutical/herbal product given with bioenhancer (BE) to fasted rats; plasma drug level by HPLC, 0-24 hrs
Conditions: drug + BE from Zingiber officinale (extract 30 mg/kg or fraction No 1 15 mg/kg)

Structure (SMILES): CCn1cc(C(=O)O)c(=O)c2cc(F)c(N3CCN(C)CC3)cc21 [P-floxacin, Pefloxacin]
- % Enhancement in bioavailability, BE from Zingiber officinale: 53%
